US20260042810 (published 2026)

Test: general procedure: Fmoc solid-phase peptide synthesis; Wang resin; HATU/HBTU, HOBt, DIPEA; DIC/HOBt
Conditions: whole synthesis

## glucagon
HPLC
  crude HPLC purity: 50-60%
Molar yield
  crude yield: 90-95%
